The test deals with L-Glutamate dehydrogenase from bovine liver (bovine) (UniProt P00366). The test is described as follows: mass photometry (denaturing, dMP), no cross-linker; 5 min in 5.4 M urea, then diluted in PBS (up to 10 min) before the measurement; both purified.

Amino acid sequences for entries named in this document (tags omitted). Residues count along the entry.
UniProt P00366, residues 58-558: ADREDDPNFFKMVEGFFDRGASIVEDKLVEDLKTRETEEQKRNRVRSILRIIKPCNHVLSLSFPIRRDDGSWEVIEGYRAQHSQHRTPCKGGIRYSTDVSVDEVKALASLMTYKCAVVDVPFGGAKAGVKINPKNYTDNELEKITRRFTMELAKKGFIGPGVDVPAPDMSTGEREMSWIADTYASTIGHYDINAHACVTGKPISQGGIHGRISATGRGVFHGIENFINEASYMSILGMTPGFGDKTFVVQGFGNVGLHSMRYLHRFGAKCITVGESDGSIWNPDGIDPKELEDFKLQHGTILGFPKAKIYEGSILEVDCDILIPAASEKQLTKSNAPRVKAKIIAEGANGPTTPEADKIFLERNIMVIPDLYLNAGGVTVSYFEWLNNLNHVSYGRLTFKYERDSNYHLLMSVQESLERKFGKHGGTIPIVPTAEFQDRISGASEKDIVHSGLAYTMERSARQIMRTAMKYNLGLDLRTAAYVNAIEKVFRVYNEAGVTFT

In PMC11045720 one finds binding data, which are given here for one substance.

No constants are given. Whether binding was seen depends on the method and setting.

“L-Glutamate dehydrogenase from bovine liver (from UniProt P00366 58-558) (enzyme)”: the binding entry was “no binding (condition: after denaturation in 5.4 M urea)”.
